Experimental data: the supplement of paper PMC9015667
Counter-ions that a name gives are not always drawn. The list shows a part of the results. Single values are uncertain, as repeats are few or missing.

Columns and labels:
Experiment in all cases: reduction in cell viability relative to untreated/vehicle; higher = more growth inhibition
Settings in all cases: 200 nM; 72 h
[1] = tested on: M229P (parental melanoma line)
[2] = tested on: M229R (matched melanoma line resistant to BRAF inhibitors)
[3] = tested on: M238P (parental melanoma line)
[4] = tested on: M238R (matched melanoma line resistant to BRAF inhibitors)
[5] = tested on: M249P (parental melanoma line)
[6] = tested on: M249R (matched melanoma line resistant to BRAF inhibitors)
[7] = tested on: UACC62P (parental melanoma line)
[8] = tested on: UACC62R (matched melanoma line resistant to BRAF inhibitors)

Row | Compound | reduction in cell viability [1] | reduction in cell viability [2] | reduction in cell viability [3] | reduction in cell viability [4] | reduction in cell viability [5] | reduction in cell viability [6] | reduction in cell viability [7] | reduction in cell viability [8]
1 | CC(C)(C)c1cc(C=C(C#N)C#N)cc(Br)c1O | < 0% | 6.8% | < 0% | < 0% | < 0% | < 0% | < 0% | < 0%
2 | O=C1C=CC[C@@H]2[C@H]3CCCN4CCC[C@@H](CN12)[C@@H]34 [Sophocarpine] | < 0% | < 0% | < 0% | < 0% | < 0% | < 0% | < 0% | < 0%
3 | CN(C)CCN(C)CCc1ccc(Cl)c(Cl)c1 | < 0% | < 0% | < 0% | < 0% | < 0% | < 0% | < 0% | < 0%
4 | CC[C@@H]1/C=C/C=C/C[C@H](C)[C@H](O)[C@](C)(O)C(=O)[C@H](C)[C@@H](O)[C@H](C)C(=O)[C@H](C)[C@@H](O)[C@H](C)/C=C/C(=O)O[C@H]2[C@@H](C)[C@@H](CC1)O[C@@]1(CC[C@@H](C)[C@@H](C[C@H](C)O)O1)[C@@H]2C [Oligomycin A] | < 0% | 1.15% | 8.62% | < 0% | < 0% | 8.63% | < 0% | < 0%
5 | COc1cc2c(cc1OC)C1CC(=O)C(CC(C)C)CN1CC2 (configuration not stated) [Tetrabenazine] | < 0% | < 0% | < 0% | < 0% | < 0% | < 0% | < 0% | < 0%
6 | COc1cc2cc(c1Cl)N(C)C(=O)C[C@H](OC(=O)C(C)C)[C@]1(C)O[C@@H]1[C@H](C)[C@@H]1C[C@@](O)(NC(=O)O1)[C@H](OC)/C=C/C=C(\C)C2 [Ansamitocin P3] | 28.5% | 38.2% | 41.6% | 63.3% | 61.7% | 46.4% | 56.9% | 88.9%
7 | CC[C@@]1(O)C(=O)OCc2c1cc1n(c2=O)Cc2cc3ccccc3nc2-1 [Camptothecin] | 55.7% | 87.2% | 83.2% | 50.6% | 64.2% | 81% | 81% | 74.4%
8 | C/C(O)=C(\C#N)C(=O)Nc1cc(Br)ccc1Br | < 0% | < 0% | < 0% | < 0% | < 0% | < 0% | < 0% | < 0%
9 | CCN(CC)C(=O)c1ccc(C2=CC3(CCNCC3)Oc3cccc(O)c32)cc1 | < 0% | < 0% | < 0% | < 0% | < 0% | < 0% | < 0% | < 0%
10 | C[C@H]1[C@@H](C(=O)C[C@H]2O[C@@H]3O[C@]4(C)CC[C@H]5[C@H](C)CC[C@@H]([C@H]2C)[C@@]35OO4)O[C@@H]2O[C@]3(C)CC[C@H]4[C@H](C)CC[C@@H]1[C@@]24OO3 [BTM-2C-dimer ketone] | 9.52% | 1.52% | 19.7% | 18.4% | 31.9% | 29.3% | 13.5% | 55.3%
11 | C1=C2CCCN[C@H]2[C@@H]2C[C@H]1[C@H]1CCCCN1C2 [Aloperine] | < 0% | < 0% | < 0% | < 0% | < 0% | < 0% | < 0% | < 0%
12 | Cc1n[nH]c2ccc(-c3cncc(OC[C@@H](N)Cc4c[nH]c5ccccc45)c3)cc12 | 77.6% | 69.4% | 81% | 67.9% | 82.4% | 80.6% | 92.5% | 88.3%
13 | C=CCO/N=C(/C[C@H]1O[C@@H]2O[C@]3(C)CC[C@H]4[C@H](C)CC[C@@H]([C@H]1C)[C@@]24OO3)[C@H]1O[C@@H]2O[C@]3(C)CC[C@H]4[C@H](C)CC[C@@H]([C@H]1C)[C@@]24OO3 [BTM-2C-dimer allyl oxime] | 20.8% | 7.68% | 28.2% | 25% | 55.9% | 47.7% | 46.6% | 58.7%
14 | CO[C@H]1CC[C@@H](O[C@H]2C[C@H]([C@]3(C)CC[C@]4(C[C@H](O)[C@@H](C)[C@@H]([C@@H](C)/C=C(\C)C(=O)[C@H](C)C[C@H](C)C(=O)O)O4)O3)O[C@]3(O[C@@H]([C@H]4O[C@@](O)(CO)[C@H](C)C[C@@H]4C)C[C@@H]3C)[C@@H]2C)O[C@@H]1C [Nanchangmycin] | 16.1% | 28.4% | 37.6% | 27.6% | 9.07% | 46% | 21.4% | 45.7%
15 | Cn1c(CCCC(=O)O)nc2cc(N(CCCl)CCCl)ccc21 [Bendamustine] | < 0% | < 0% | < 0% | < 0% | 0.6% | < 0% | 5.89% | < 0%
16 | O=c1cccc2n1C[C@@H]1CNC[C@H]2C1 [Cytisine] | < 0% | < 0% | < 0% | < 0% | < 0% | < 0% | < 0% | < 0%
17 | CCOC(=O)c1c(/C(C#N)=C\N)c2ccc(Cl)c(Cl)c2n1C | < 0% | < 0% | < 0% | < 0% | < 0% | < 0% | < 0% | < 0%
18 | CC(C)(O)/C=C/C(=O)[C@](C)(O)[C@H]1[C@H](O)C[C@@]2(C)[C@@H]3CC=C4[C@@H](C=C(O)C(=O)C4(C)C)[C@]3(C)C(=O)C[C@]12C [Cucurbitacin I] | 33.8% | 48.2% | 53.1% | 69.5% | 59.5% | 66% | 33% | 65.1%
19 | Oc1ccc2c3c1O[C@H]1c4[nH]c5c(c4C[C@@]4(O)[C@@H](C2)N(CC2CC2)CC[C@]314)C[C@@]1(O)[C@H]2Cc3ccc(O)c4c3[C@@]1(CCN2CC1CC1)[C@H]5O4 [nor-Binaltorphimine] | < 0% | < 0% | < 0% | < 0% | < 0% | < 0% | < 0% | < 0%
20 | C[C@]12COC(=O)C[C@@H]1CC[C@@H]1[C@@H]2CC[C@@]2(C)[C@H]1CC[C@]2(C)O [Oxandrolone] | < 0% | < 0% | < 0% | < 0% | < 0% | < 0% | 1.29% | < 0%

Quoted from above, three compounds:
Row | Compound | reduction in cell viability [1] | reduction in cell viability [2] | reduction in cell viability [3] | reduction in cell viability [4] | reduction in cell viability [5] | reduction in cell viability [6] | reduction in cell viability [7] | reduction in cell viability [8]
11 | C1=C2CCCN[C@H]2[C@@H]2C[C@H]1[C@H]1CCCCN1C2 [Aloperine] | < 0% | < 0% | < 0% | < 0% | < 0% | < 0% | < 0% | < 0%
12 | Cc1n[nH]c2ccc(-c3cncc(OC[C@@H](N)Cc4c[nH]c5ccccc45)c3)cc12 | 77.6% | 69.4% | 81% | 67.9% | 82.4% | 80.6% | 92.5% | 88.3%
13 | C=CCO/N=C(/C[C@H]1O[C@@H]2O[C@]3(C)CC[C@H]4[C@H](C)CC[C@@H]([C@H]1C)[C@@]24OO3)[C@H]1O[C@@H]2O[C@]3(C)CC[C@H]4[C@H](C)CC[C@@H]([C@H]1C)[C@@]24OO3 [BTM-2C-dimer allyl oxime] | 20.8% | 7.68% | 28.2% | 25% | 55.9% | 47.7% | 46.6% | 58.7%

Continuation:

Row | Compound | reduction in cell viability [1] | reduction in cell viability [2] | reduction in cell viability [3] | reduction in cell viability [4] | reduction in cell viability [5] | reduction in cell viability [6] | reduction in cell viability [7] | reduction in cell viability [8]
21 | O=c1[nH]c2ccccc2n1CCCN1CCC(n2c(=O)[nH]c3cc(Cl)ccc32)CC1 [Domperidone] | < 0% | < 0% | < 0% | < 0% | < 0% | < 0% | 3.6% | < 0%
22 | c1cc2c(cc1[C@H]1OC[C@H]3[C@@H]1CO[C@@H]3c1ccc3c(c1)OCO3)OCO2 [Sesamin] | < 0% | < 0% | < 0% | < 0% | < 0% | < 0% | 5.19% | < 0%
23 | Clc1ccccc1C(c1ccccc1)(c1ccccc1)n1cccn1 | < 0% | < 0% | < 0% | < 0% | < 0% | < 0% | 3.99% | < 0%
24 | O=C(Nc1ccncc1)C(=O)c1cn(Cc2ccc(Cl)cc2)c2ccccc12 [Indibulin] | 18.4% | 33.5% | 70.8% | 65.4% | 60% | 42.1% | 46.2% | 87%
25 | CN1[C@@H]2CC(O)C[C@H]1[C@@H]1O[C@@H]12 (some centres not stated) [Scopine] | < 0% | < 0% | < 0% | < 0% | < 0% | < 0% | < 0% | < 0%
26 | CNC(=O)N1N=C(c2ccc(N)cc2)c2cc3c(cc2CC1C)OCO3 (configuration not stated) | < 0% | < 0% | < 0% | < 0% | < 0% | 19.9% | 19% | < 0%
27 | COC(=O)[C@@H](N)CCCNC(=N)N[N+](=O)[O-] | < 0% | < 0% | < 0% | < 0% | < 0% | < 0% | 13.7% | < 0%
28 | Cc1ccccc1-n1c(Cn2cnc3c(N)ncnc32)nc2cccc(C)c2c1=O | < 0% | < 0% | < 0% | < 0% | < 0% | < 0% | < 0% | < 0%
29 | COc1ccc(C(=O)N2CCCC2=O)cc1 [Aniracetam] | < 0% | < 0% | < 0% | < 0% | < 0% | < 0% | < 0% | < 0%
30 | CC(C)[C@H]1C(=O)N[C@H](CO)Cc2c[nH]c3cccc(c23)N1C [(-)-Indolactam V] | 11.6% | 27.5% | 36.9% | 45.7% | 9.33% | 0.43% | 21.5% | 68.3%
31 | Cc1ccccc1-n1c(Cn2ncc3c(N)ncnc32)nc2cccc(C)c2c1=O | < 0% | < 0% | < 0% | < 0% | < 0% | < 0% | 14.7% | < 0%
32 | CCCCCC[C@H]1C(=O)O[C@H](C)[C@H](NC(=O)c2cccc(NC=O)c2O)C(=O)O[C@@H](C)[C@@H]1OC(=O)CC(C)C [Antimycin A] | < 0% | 13.4% | 6.28% | < 0% | 0.64% | < 0% | < 0% | 37.6%
33 | C=C(C)[C@H]1Cc2c(ccc3c2O[C@@H]2COc4cc(OC)c(OC)cc4[C@@H]2C3=O)O1 [Rotenone] | 7.66% | 18.5% | 25.7% | < 0% | 9.78% | 21.1% | 25.8% | 53.5%
34 | CC(C)CC(N(C)C)C1(c2ccc(Cl)cc2)CCC1 (configuration not stated) [Sibutramine hydrochloride] | < 0% | < 0% | < 0% | < 0% | < 0% | < 0% | < 0% | < 0%
35 | CC(=O)Nc1ccc(OC[C@](C)(O)C(=O)Nc2ccc([N+](=O)[O-])c(C(F)(F)F)c2)cc1 [Andarine] | < 0% | < 0% | < 0% | < 0% | < 0% | < 0% | < 0% | < 0%
36 | O=P1(N(CCCl)CCCl)NCCCO1 (configuration not stated) [Cyclophosphamide] | < 0% | < 0% | < 0% | < 0% | 2.27% | < 0% | 9.02% | < 0%
37 | C[C@](O)(COc1ccc(C#N)cc1)C(=O)Nc1ccc(C#N)c(C(F)(F)F)c1 [Ostarine] | < 0% | < 0% | < 0% | < 0% | < 0% | < 0% | 5.22% | < 0%
38 | COc1cccc2c1[C@]13CCN(CC4CC4)[C@H](C2)[C@]1(OC)CCC(=O)C3 [Cyprodime] | < 0% | < 0% | < 0% | < 0% | < 0% | < 0% | 9.74% | < 0%
39 | O=C(N[C@H]1CN2CCC1CC2)c1ccc(Cl)cc1 | < 0% | < 0% | < 0% | < 0% | 6.46% | < 0% | < 0% | < 0%
